In patent US12383653B2, “Neutral multidomain peptide hydrogels and uses thereof” (William Marsh Rice University, priority 2018, dated 2025):

Experiment: In vivo host response, subcutaneous injection model
Set-up: species or system mice
Method: In vivo compatibility studies. All experimental procedures were approved by the Rice University Institutional Animal Care and Use Committee (IACUC) and performed according to the Animal Welfare Act and NIH guidelines. Female C57BL/6 mice from 8 to 12 weeks were purchased from Charles River (Wilmington, MA). Mice were injected with 4 implants of 100 μL 1% by weight O5 hydrogel in the dorsal subcutaneous space using a 26-gauge needle. At days 3, 7, and 14 mice were euthanized, and implants were extracted, fixed with 10% neutral buffered formalin and processed into paraffin blocks. Tissue was sectioned at 5 μm thickness and stained with hematoxylin and eosin, and Masson's trichome under standard procedures. For fluorescent immunostaining, tissue sections were deparaffinized, hydrated and antigens were retrieved by boiling in sodium citrate buffer (10 mM sodium citrate, 0.05% Tween 20 at pH 6.0). Tissues were permeabilized with 0.5% Triton X and blocked with 1% BSA in PBS for 30 min. Tissues were incubated overnight at 4° C. with rat anti-Mouse F4/80 monoclonal antibody (1:50, clone BM8, eBioscience™, Cat #14-4801-82). Then, samples were incubated for 1 hour with goat anti-rat AlexaFluor® 568 (1:500, Invitrogen), followed by mounting with ProLong® Gold Antifade reagent with DAPI. Tissue slides were analyzed by confocal fluorescent microscopy.

Compound: CC(=O)N1C[C@H](O)C[C@H]1C(=O)N1C[C@H](O)C[C@H]1C(=O)N1C[C@H](O)C[C@H]1C(=O)N1C[C@H](O)C[C@H]1C(=O)N1C[C@H](O)C[C@H]1C(=O)N[C@@H](CO)C(=O)N[C@@H](CC(C)C)C(=O)N[C@@H](CO)C(=O)N[C@@H](CC(C)C)C(=O)N[C@@H](CO)C(=O)N[C@@H](CC(C)C)C(=O)N[C@@H](CO)C(=O)N[C@@H](CC(C)C)C(=O)N[C@@H](CO)C(=O)N[C@@H](CC(C)C)C(=O)N[C@@H](CO)C(=O)N[C@@H](CC(C)C)C(=O)N1C[C@H](O)C[C@H]1C(=O)N1C[C@H](O)C[C@H]1C(=O)N1C[C@H](O)C[C@H]1C(=O)N1C[C@H](O)C[C@H]1C(=O)N1C[C@H](O)C[C@H]1C(N)=O [Peptide O5, Ac-OOOOOSLSLSLSLSLSLOOOOO-CONH2] (Ac-[Hyp][Hyp][Hyp][Hyp][Hyp]SLSLSLSLSLSL[Hyp][Hyp][Hyp][Hyp][Hyp]-NH2)
- macrophage (F4/80+) infiltration of implant (day 3, 100 μL 1% by weight hydrogel subcutaneous): F4/80+ macrophages have infiltrated the periphery of the material
- macrophage (F4/80+) infiltration of implant (day 7): macrophages have completely infiltrated the implant
- vascularization or innervation (subcutaneous implant): did not promote vascularization or innervation

Where a SMILES comes first, the peptide text is derived from it. [ ]: non-standard residue; d: D form. Hyp = O=C(O)[C@@H]1C[C@@H](O)CN1
